Reference: PMC4024641

How the values were obtained:
Test in all cases: affinity purification with mass spectrometry; 3×FLAG- or 13×myc-tagged bait purified from S. pombe cell extract on α-FLAG (M2) or α-myc (9E10) antibody cross-linked to Protein G Dynabeads, 4°C for 3 h, IP buffer (20 mM HEPES pH 7.5, 100 mM NaCl, 5 mM MgCl2, 1 mM EDTA, 10% glycerol, 0.25% Triton X-100, 0.5 mM DTT); LC-MS/MS; Red1-3×FLAG also from iss10Δ, rmn1Δ and Mtl1 knockdown cells
Red1-3×FLAG (S. pombe) = molecular target: T1, Red1-3×FLAG (S. pombe) (UniProt Q9UTR8)
T1 sequence: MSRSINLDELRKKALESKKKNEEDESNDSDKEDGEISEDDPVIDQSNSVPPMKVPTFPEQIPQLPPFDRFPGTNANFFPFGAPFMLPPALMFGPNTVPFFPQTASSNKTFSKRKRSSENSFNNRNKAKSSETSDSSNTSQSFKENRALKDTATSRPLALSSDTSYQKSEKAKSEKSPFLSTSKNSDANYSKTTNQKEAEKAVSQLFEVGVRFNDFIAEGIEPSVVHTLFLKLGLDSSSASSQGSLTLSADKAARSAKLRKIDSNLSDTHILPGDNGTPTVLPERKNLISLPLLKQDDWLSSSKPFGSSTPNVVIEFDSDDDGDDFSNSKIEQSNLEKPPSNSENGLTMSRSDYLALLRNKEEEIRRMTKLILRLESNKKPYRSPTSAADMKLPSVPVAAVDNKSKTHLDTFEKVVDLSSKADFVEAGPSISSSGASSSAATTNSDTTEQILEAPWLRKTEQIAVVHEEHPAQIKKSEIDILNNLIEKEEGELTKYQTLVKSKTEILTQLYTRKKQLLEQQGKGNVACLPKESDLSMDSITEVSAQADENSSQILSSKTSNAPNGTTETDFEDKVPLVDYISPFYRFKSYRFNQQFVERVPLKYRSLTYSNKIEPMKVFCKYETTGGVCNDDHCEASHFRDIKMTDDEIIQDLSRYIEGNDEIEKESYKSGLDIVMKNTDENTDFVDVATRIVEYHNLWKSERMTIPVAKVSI

Mtl1-3×FLAG (S. pombe) = molecular target: T2, Mtl1-3×FLAG (S. pombe) (UniProt O13799)
T2 sequence: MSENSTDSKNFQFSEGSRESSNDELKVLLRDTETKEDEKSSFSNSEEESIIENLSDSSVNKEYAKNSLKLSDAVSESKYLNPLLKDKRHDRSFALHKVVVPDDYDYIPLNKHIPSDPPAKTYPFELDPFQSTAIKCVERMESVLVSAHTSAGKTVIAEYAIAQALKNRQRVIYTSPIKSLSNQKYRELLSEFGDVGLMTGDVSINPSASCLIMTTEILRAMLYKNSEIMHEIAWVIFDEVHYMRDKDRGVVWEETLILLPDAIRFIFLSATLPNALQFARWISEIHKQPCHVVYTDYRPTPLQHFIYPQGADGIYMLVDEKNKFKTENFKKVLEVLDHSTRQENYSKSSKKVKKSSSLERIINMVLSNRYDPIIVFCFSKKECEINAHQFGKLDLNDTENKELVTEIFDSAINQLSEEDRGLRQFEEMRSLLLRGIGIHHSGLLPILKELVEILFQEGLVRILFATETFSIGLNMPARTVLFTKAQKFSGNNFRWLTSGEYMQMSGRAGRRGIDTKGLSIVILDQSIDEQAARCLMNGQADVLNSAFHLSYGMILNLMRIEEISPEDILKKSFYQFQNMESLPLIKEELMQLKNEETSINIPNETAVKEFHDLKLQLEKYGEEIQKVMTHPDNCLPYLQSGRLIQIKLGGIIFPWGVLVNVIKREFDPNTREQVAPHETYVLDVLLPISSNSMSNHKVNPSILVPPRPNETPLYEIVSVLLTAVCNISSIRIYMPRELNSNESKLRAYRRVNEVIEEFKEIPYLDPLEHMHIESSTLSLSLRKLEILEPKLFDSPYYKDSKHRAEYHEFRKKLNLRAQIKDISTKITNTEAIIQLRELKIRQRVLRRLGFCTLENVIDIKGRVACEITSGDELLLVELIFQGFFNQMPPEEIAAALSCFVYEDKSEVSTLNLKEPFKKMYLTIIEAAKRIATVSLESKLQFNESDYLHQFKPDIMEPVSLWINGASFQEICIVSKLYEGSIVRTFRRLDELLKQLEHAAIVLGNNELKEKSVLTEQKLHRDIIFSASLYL

Ars2-3×FLAG (S. pombe) = molecular target: T3, Ars2-3×FLAG (S. pombe) (UniProt O94326)
T3 sequence: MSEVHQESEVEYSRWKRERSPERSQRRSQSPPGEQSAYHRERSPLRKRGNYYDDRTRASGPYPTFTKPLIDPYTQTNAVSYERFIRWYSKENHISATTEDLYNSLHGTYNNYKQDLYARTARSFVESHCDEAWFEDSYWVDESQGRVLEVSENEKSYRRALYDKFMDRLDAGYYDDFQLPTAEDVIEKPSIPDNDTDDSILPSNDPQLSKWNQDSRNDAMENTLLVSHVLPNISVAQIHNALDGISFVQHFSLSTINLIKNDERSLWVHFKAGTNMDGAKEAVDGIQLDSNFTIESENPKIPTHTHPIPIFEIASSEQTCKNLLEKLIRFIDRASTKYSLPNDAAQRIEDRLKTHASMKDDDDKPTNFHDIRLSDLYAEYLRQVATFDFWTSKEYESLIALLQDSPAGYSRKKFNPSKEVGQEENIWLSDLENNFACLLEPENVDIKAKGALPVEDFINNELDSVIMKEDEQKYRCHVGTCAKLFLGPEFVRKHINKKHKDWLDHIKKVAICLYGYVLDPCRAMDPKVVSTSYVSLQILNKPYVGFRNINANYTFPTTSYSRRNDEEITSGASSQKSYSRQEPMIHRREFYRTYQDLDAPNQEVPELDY

Measured: binding

B1: Pab2 (protein, UniProt O14327 1-166)
chain: MSDQDALDTQEKELLEMKERVAEMEAEAAKLRAMQEQLDNETEALRNDKESIDAQSVYVGNVDYSVTPEELQSHFASCGSVNRVTILCDKFTGHPKGFAYIEFSEPSLVPNALLLNGSMLHERPLKVTPKRTNVPGMSRGRGRGRGRGRGRGRGGYRGRARGFAPY
binds: all assays above

B2: Pla1 (protein, UniProt Q10295 1-566)
chain: MTTKQWGITPPISTAPATEQENALNTALINELKNQNLFESPAESEKRVKVLDELQQITTEFVKKVSLAKHMNEKMANEAGGKIFTYGSYRLGVYGPGSDIDTLVVVPKHVSRDNFFQDLEPMLREREEVTDLAAVPDAYVPIIKFKFLGISIDLIFARLSVPRVPRDLELSDNNLLKGVEERCVLSLNGTRVTDQILQLVPNRAVFKHALRAIKFWAQRRAIYANVVGFPGGVAWAMMVARICQLYPNAVSSVIVAKFFRILHQWNWPQPILLKPIEDGPLQVRIWNPKLYPSDKAHRMPIITPAYPSMCATHNITLSTQTIILREMVRAGEIADQIMVKALPWSALFQKHDFFHRYKHYLTITAAAKTAEAQLKWAGLVESKLRHLVTRLELVDAIALAHPFNKGFDKVYNCSSEEEAQQVASGVTLEVAYESTDHEKLANDTVNEEKADNTESKADGSENGEKQIFPVYTTTCYIGLELEKKKGHPIKRLDISWPTQEFYELCKKWDKYDDTLMNVFIKNTKNTALPDEVFEPGEERPKATKKRSTADTAHSTEQLKRQKVSTA
binds: all assays above

Results are given in words; binding and its absence hold for the method and conditions named. Binding seen in cells or lysates may run through a third protein. Here binding means that the protein was enriched with, or labelled near, the bait; the list need not be complete. Sequences can lack the tags named with a protein.
